Data source: PubChem BioAssay AID1224830 (NIAID, 2016)

- Purpose: 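Host factors that control LPS-induced TNF expression in human macrophages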 (primary screen)
- Cell system: human THP-1 monocytic leukaemia cells, TNF dual-luciferase reporter clone, PMA-differentiated to macrophage-like cells
- Reagents: siRNA pool against human genes, 50 nM
- Duration: LPS for 4 h, given about 3 days after siRNA transfection
- Treatment: bacterial LPS (TLR4 ligand), 10 ng/ml
- Read-out: 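Ratio of firefly to renilla light, scaled to the plate median and expressed as a robust z-score per replicate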
- Reading the numbers: TNF reporter robust z-score: higher = stronger TNF reporter response to LPS
- Hit rule: 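Each well counts as active if its z-score is over 2.8 or under -1.5; controls are left without a call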
In all, the deposit lists about 18,000 reagents; below is a part drawn at random. Over the whole deposit, about 2,900 (16%) were called active. 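Calls are made per well; low scores hint the gene aids the LPS response, high scores that it dampens it.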 Repeated entries: four replicate wells of each siRNA pool.

| Target gene | TNF reporter robust z-score | Call |
| --- | --- | --- |
| ADGRD2 | 0.43 | inactive |
| ADGRD2 | -0.23 | inactive |
| ADGRD2 | 0.08 | inactive |
| ADGRD2 | 0.34 | inactive |
| SEPHS1 | 0.17 | inactive |
| SEPHS1 | 0 | inactive |
| SEPHS1 | 0.34 | inactive |
| SEPHS1 | 0.06 | inactive |
| RIN1 | 2.64 | inactive |
| RIN1 | -0.48 | inactive |
| RIN1 | 0.14 | inactive |
| RIN1 | -1.07 | inactive |
| KIAA0753 | 0.46 | inactive |
| KIAA0753 | 0.55 | inactive |
| KIAA0753 | 0.04 | inactive |
| KIAA0753 | -0.51 | inactive |
| SSX2 | 1.96 | inactive |
| SSX2 | 1.12 | inactive |
| SSX2 | 2.16 | inactive |
| SSX2 | -0.7 | inactive |
| ANO5 | 2.2 | inactive |
| ANO5 | -0.48 | inactive |
| ANO5 | -0.21 | inactive |
| ANO5 | -0.12 | inactive |
| SHC1 | -0.67 | inactive |
| SHC1 | 0.95 | inactive |
| SHC1 | -0.6 | inactive |
| PRB2 | 1.33 | inactive |
| PRB2 | 0.67 | inactive |
| PRB2 | 1.23 | inactive |
| PRB2 | 0.74 | inactive |
| ENKUR | 0.45 | inactive |
| ENKUR | 0.24 | inactive |
| ENKUR | 0.15 | inactive |
| ENKUR | 0.6 | inactive |
| ADRM1 | -1.3 | inactive |
| ADRM1 | 0.49 | inactive |
| ADRM1 | 0.29 | inactive |
| ADRM1 | -0.63 | inactive |
| AAGAB | 1.84 | inactive |
| AAGAB | 1.13 | inactive |
| AAGAB | 0.54 | inactive |
| AAGAB | 2.17 | inactive |
| TMEM39B | -0.2 | inactive |
| TMEM39B | 0.63 | inactive |
| TMEM39B | -0.09 | inactive |
| TMEM39B | 0.35 | inactive |
